Experimental data: the supplement of paper PMC4604168 (melanoma cell lines)
Some of the results follow. Single values are uncertain, as repeats are few or missing.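 The apoptosis fraction was the count of cleaved-PARP antibody-stained nuclei relative to all DNA-stained nuclei, imaged in 1,536-well plates. Screening doses were set so most cells survived, and baseline and induced cleaved-PARP levels vary greatly across cell lines.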

Tested on: A101D
Test: cleaved PARP positive nuclei fraction relative to DMSO control; melanoma cells; higher = more apoptosis
Conditions: library dose: low library concentration; 72 h

Compound	cleaved PARP positive nuclei fraction [%]
CCN(CC)CCNC(=O)c1c(C)[nH]c(/C=C2\C(=O)Nc3ccc(F)cc32)c1C [sunitinib] + c1cc(-c2cnn3cc(-c4ccc(OCCN5CCCCC5)cc4)cnc23)ccn1 [Dorsomorphin] (first compound 0.4 µM, partner dose 0.4 µM)	47.1
C[C@]1(O)C[C@@H](c2nc(-c3ccc4ccc(-c5ccccc5)nc4c3)c3c(N)nccn32)C1 + Oc1nc(-c2ccc(C(F)(F)F)cc2)nc2c1CSCC2 [XAV939] (first compound 0.4 µM, partner dose 2 µM)	14.8
C[C@@H](N)c1ccc(C(=O)Nc2ccnc3[nH]ccc23)cc1 + COc1ccc(-c2ccc3c(N4CCOCC4)nc(N4C[C@@H](C)O[C@@H](C)C4)nc3n2)cc1CO [KU0063794] (first compound 0.4 µM, partner dose 0.02 µM)	29.7
CCCCCCCCc1ccc(CCC(N)(CO)CO)cc1 [fingolimod] + O=C(O)C(=O)Nc1sc2c(c1C(=O)O)CCNC2 [TCS401] (first compound 2 µM, partner dose 1.66667 µM)	16.5
CCN(CC)CCNC(=O)c1c(C)[nH]c(/C=C2\C(=O)Nc3ccc(F)cc32)c1C [sunitinib] + Cn1cc(/C=C2\C(=O)Nc3cccnc32)c2ccccc21 [GW441756] (first compound 0.4 µM, partner dose 0.4 µM)	113
CC1(C)CCC(c2ccc(Cl)cc2)=C(CN2CCN(c3ccc(C(=O)NS(=O)(=O)c4ccc(N[C@H](CCN5CCOCC5)CSc5ccccc5)c(S(=O)(=O)C(F)(F)F)c4)cc3)CC2)C1 + c1cc(-c2cnn3cc(-c4ccc(OCCN5CCCCC5)cc4)cnc23)ccn1 [Dorsomorphin] (first compound 0.4 µM, partner dose 0.4 µM)	123
C[C@@H](N)c1ccc(C(=O)Nc2ccnc3[nH]ccc23)cc1 + COC(=O)c1sccc1S(=O)(=O)Nc1ccc(Nc2ccccc2)cc1OC [GSK0660] (first compound 0.4 µM, partner dose 1 µM)	16.7
CCCCCCCCc1ccc(CCC(N)(CO)CO)cc1 [fingolimod] + COc1ccc(-c2ccc3c(N4CCOCC4)nc(N4C[C@@H](C)O[C@@H](C)C4)nc3n2)cc1CO [KU0063794] (first compound 2 µM, partner dose 0.02 µM)	15.1
CCCCCCCCc1ccc(CCC(N)(CO)CO)cc1 [fingolimod] + N#Cc1c(O)c2c(-c3ccc(-c4ccccc4O)cc3)csc2[nH]c1=O [A769662] (first compound 2 µM, partner dose 2 µM)	54.9
